According to the supplement of paper PMC10849652:
The other results are listed elsewhere or left out.

The chains behind the UniProt entries cited, without tags or fusion partners. Where a name states a change or a piece, a line headed by the entry shows the natural chain unless it says otherwise.
UniProt P60228, whole entry, looked up: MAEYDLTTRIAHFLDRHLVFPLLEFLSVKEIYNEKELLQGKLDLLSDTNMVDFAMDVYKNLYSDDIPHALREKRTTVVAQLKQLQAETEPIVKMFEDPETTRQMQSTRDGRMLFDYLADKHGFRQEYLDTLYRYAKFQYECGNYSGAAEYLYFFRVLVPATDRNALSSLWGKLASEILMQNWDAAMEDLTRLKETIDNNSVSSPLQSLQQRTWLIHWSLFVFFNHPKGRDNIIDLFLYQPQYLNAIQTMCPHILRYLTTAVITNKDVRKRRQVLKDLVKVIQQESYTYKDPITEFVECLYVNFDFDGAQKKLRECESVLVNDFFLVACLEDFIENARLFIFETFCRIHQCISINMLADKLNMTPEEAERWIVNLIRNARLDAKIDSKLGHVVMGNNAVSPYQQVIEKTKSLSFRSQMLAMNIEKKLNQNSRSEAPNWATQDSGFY
UniProt Q9BW60: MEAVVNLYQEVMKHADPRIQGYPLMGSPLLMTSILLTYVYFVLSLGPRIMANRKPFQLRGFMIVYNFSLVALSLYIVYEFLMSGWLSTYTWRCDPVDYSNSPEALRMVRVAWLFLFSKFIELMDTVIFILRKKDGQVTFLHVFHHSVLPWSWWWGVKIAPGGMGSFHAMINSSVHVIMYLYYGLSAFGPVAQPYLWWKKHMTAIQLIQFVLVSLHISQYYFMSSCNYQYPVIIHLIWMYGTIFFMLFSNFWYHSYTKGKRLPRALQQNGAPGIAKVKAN
UniProt Q15369, whole entry, looked up: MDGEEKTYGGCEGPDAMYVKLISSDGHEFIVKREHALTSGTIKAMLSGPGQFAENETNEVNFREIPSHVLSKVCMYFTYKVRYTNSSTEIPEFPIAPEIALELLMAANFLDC
UniProt Q53HC9: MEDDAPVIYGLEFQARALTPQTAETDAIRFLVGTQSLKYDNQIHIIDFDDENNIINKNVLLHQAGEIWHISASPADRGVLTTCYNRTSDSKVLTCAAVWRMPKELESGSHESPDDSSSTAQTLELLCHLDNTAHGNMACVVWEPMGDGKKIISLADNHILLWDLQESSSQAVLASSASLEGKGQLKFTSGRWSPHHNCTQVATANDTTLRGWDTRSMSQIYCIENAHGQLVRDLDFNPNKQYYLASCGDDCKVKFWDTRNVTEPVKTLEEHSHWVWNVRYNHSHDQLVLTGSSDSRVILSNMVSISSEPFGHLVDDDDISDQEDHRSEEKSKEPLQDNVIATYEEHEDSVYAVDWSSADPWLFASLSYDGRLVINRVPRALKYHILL
UniProt P24534: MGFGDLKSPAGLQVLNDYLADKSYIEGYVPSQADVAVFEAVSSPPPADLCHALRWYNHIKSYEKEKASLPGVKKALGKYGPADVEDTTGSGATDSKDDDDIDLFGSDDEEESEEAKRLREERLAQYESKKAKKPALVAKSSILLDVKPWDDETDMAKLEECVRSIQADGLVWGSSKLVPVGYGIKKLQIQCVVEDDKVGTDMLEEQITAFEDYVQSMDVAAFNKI
UniProt Q9UHF1: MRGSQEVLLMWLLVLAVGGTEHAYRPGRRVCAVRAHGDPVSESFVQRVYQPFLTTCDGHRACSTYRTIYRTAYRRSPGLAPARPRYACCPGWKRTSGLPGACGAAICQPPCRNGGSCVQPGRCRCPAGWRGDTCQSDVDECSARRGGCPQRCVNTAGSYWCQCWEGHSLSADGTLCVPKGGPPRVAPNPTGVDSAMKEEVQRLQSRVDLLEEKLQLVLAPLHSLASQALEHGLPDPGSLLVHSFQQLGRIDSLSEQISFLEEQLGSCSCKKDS
UniProt Q9NRA8: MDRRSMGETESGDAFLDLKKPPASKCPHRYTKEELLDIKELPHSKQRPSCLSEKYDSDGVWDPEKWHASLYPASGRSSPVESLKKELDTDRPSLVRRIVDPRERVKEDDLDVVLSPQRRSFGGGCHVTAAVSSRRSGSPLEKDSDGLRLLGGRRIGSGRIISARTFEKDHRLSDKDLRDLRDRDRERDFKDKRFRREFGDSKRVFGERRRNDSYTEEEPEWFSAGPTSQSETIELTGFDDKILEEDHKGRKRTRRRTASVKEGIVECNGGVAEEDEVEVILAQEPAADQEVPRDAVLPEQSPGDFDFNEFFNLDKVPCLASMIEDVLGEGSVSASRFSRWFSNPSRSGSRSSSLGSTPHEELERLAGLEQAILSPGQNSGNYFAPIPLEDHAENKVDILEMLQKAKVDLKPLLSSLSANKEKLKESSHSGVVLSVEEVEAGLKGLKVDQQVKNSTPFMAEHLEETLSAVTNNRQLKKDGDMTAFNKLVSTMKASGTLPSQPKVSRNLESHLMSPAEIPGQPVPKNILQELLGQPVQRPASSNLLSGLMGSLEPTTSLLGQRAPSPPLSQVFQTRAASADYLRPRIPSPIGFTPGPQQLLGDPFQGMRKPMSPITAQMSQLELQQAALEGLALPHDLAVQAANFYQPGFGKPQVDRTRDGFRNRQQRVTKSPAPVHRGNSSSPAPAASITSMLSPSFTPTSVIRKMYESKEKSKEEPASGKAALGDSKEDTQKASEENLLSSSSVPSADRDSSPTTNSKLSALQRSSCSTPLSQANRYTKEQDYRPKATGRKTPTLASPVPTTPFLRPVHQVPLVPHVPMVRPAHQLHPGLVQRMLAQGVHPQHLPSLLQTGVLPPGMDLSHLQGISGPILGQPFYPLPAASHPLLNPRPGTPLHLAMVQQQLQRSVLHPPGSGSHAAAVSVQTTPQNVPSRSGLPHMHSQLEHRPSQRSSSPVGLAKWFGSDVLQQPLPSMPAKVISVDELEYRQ
UniProt P55199: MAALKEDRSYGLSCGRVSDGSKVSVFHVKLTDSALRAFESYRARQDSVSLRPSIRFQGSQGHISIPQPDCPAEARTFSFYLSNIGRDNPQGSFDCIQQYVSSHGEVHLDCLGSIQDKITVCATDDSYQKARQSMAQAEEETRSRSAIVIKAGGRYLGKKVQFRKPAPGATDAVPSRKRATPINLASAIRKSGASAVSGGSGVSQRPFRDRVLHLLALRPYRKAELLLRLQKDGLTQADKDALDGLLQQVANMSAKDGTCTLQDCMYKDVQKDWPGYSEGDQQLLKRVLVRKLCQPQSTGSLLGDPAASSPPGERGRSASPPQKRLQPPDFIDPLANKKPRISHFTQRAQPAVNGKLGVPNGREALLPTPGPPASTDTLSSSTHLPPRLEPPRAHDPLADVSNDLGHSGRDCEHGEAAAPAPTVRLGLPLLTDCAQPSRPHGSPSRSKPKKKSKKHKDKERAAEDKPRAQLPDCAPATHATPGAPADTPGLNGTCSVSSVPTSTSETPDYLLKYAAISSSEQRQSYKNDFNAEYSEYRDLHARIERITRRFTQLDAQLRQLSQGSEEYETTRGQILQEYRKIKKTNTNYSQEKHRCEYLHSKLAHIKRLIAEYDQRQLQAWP
UniProt P60842, whole entry, looked up: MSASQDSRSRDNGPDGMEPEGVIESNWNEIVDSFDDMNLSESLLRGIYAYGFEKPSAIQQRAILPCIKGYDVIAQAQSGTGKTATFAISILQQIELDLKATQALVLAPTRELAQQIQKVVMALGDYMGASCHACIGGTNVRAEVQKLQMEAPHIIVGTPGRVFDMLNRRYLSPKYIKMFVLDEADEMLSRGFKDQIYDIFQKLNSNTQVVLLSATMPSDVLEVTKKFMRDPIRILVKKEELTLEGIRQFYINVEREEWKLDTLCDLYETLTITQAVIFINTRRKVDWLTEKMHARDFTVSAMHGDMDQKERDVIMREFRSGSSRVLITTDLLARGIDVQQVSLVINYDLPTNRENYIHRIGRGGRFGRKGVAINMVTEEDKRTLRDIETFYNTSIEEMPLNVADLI
UniProt Q9H777: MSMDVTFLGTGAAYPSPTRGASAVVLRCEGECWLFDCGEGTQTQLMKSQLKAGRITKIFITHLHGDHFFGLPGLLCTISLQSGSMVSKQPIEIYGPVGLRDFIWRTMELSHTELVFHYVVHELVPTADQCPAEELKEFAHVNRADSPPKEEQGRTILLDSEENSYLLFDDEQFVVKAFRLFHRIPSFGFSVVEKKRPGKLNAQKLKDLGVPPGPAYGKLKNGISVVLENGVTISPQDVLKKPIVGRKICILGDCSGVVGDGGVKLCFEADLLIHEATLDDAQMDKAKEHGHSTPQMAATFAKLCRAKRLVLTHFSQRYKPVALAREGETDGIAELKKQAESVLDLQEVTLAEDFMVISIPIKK
UniProt O75822, whole entry, looked up: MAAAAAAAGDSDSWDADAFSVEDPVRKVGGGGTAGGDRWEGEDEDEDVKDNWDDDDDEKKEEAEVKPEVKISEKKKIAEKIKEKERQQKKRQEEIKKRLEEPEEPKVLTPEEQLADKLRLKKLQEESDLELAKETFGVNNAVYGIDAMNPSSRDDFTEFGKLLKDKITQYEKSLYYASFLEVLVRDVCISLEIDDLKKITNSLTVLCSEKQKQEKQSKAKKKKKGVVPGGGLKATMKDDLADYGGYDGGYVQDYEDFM
UniProt Q9H5J4: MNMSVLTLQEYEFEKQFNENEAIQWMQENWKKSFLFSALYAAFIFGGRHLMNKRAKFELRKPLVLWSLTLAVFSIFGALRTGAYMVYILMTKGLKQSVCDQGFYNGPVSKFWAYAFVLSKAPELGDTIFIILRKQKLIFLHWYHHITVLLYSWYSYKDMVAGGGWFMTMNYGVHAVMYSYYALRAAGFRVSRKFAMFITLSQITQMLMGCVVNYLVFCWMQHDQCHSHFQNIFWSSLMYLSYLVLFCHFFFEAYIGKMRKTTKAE
UniProt P32519: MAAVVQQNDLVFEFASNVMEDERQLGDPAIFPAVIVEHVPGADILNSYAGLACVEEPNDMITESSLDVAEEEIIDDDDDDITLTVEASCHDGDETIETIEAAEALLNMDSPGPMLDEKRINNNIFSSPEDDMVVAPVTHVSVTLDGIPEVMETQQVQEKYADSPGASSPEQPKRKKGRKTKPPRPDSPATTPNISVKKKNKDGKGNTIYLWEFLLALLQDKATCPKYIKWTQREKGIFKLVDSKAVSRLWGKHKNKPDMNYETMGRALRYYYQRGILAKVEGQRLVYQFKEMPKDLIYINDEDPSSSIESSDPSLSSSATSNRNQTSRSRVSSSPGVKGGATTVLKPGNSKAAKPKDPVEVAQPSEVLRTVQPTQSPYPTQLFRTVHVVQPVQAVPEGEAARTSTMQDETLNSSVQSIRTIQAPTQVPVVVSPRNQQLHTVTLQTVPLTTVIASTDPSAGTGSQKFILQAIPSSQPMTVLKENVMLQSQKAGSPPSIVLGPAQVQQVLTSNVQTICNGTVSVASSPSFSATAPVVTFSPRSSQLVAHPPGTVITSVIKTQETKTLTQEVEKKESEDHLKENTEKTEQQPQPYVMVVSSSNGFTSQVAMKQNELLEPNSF
UniProt Q32P44: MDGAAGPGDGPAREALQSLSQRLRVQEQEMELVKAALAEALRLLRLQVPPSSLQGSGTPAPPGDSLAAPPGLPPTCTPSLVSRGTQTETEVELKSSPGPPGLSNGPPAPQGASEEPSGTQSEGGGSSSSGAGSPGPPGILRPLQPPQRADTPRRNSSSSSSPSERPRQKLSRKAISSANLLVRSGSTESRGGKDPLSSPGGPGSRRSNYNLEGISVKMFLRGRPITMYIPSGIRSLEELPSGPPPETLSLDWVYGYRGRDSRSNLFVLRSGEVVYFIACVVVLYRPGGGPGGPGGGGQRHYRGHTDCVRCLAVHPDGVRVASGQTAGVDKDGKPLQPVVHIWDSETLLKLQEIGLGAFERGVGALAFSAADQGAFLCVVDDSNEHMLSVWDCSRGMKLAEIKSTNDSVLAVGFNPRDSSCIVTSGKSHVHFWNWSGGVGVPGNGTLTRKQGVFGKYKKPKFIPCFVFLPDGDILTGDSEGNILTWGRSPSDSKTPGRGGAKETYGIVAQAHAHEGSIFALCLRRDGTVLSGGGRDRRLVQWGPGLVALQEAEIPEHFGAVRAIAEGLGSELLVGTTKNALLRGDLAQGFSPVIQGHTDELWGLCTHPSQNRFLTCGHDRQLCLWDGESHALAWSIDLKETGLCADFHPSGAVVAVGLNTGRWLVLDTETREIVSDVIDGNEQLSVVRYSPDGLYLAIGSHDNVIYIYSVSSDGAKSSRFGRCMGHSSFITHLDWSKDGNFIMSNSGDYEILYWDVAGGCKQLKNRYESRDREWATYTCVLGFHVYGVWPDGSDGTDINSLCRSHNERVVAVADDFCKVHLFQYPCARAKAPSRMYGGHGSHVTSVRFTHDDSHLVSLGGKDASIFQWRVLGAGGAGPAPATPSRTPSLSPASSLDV

Assays:
Test in all cases: log2 fold change, soluble protein after heating vs DMSO (PISA); higher = thermal stabilisation; K562 cells, 10 uM, 30 min; active = over 0.2 and 3.5 SD of the protein, either way, in both replicates (recomputed)
[1] = compound: CC1=C(C=C(C=C1)NC(=O)C2=CC(=CC=C2)C(C)(C)C#N)NC3=CC4=C(C=C3)N=CN(C4=O)C
Outline: (§1)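 Thermal stability values are relative to control samples and come from duplicates. They are expressed as log2 fold changes. For measurement, K562 cells (2×10^6 cells/mL) received 10 μM compound for 30 min, and aliquots were heated for 3 min over 48°C-58°C, pooled, and extracted at 4°C in PBS with 0.5% NP-40. Soluble protein, the supernatant after 21,000xg for 90 min, was quantified by TMTpro 16plex LC-MS/MS with equalised channel sums.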

[2] = compound: CC1=C(C=C(C=C1)NC(=O)C2=CC(=CC=C2)N(C)C)NC(=O)C3=CC=C(C=C3)O
Outline: as §1

[3] = compound: CC1=CC=C(C=C1)SC2=C3C=C(SC3=CN=C2)C(=O)N
Outline: as §1

[4] = compound: CC1=NC(=CC=C1)C2=C(N=C(N2)C(C)(C)C)C3=CC4=NC=CN=C4C=C3
Outline: as §1

Nexturastat A = compound: CCCCN(Cc1ccc(C(=O)NO)cc1)C(=O)Nc1ccccc1 [Nexturastat A]
Outline: as §1

vemurafenib = compound: CCCS(=O)(=O)Nc1ccc(F)c(C(=O)c2c[nH]c3ncc(-c4ccc(Cl)cc4)cc23)c1F [vemurafenib]
Outline: as §1

[5] = compound: CCCS(=O)(=O)Nc1ccc(F)c(C(=O)c2c[nH]c3ncc(Cl)cc23)c1F
Outline: as §1

[6] = compound: CCCc1cc(C)[nH]c(=O)c1CNC(=O)c1cc(-c2ccnc(N3CCN(C)CC3)c2)cc2c1cnn2C(C)C
Outline: as §1

givinostat = compound: CCN(CC)Cc1ccc2cc(COC(=O)Nc3ccc(C(=O)NO)cc3)ccc2c1 [givinostat]
Outline: as §1

barasertib = compound: CCN(CCCOc1ccc2c(Nc3cc(CC(=O)Nc4cccc(F)c4)[nH]n3)ncnc2c1)CCOP(=O)(O)O [barasertib]
Outline: as §1

[7] = compound: CC[C@@H]1C(=O)N(C)c2cnc(Nc3ccc(C(=O)NC4CCN(C)CC4)cc3OC)nc2N1C1CCCC1
Outline: as §1

volasertib = compound: CC[C@@H]1C(=O)N(C)c2cnc(Nc3ccc(C(=O)N[C@H]4CC[C@H](N5CCN(CC6CC6)CC5)CC4)cc3OC)nc2N1C(C)C [volasertib]
Outline: as §1

[8] = compound: CC[C@H](C)N1C=C(C2=C(C=C(C=C21)C3=CN=C(C=C3)N4CCNCC4)C(=O)NCC5=C(C=C(NC5=O)C)C)C
Outline: as §1

epoxomicin = compound: CC[C@H](C)[C@@H](C(=O)N[C@@H]([C@@H](C)O)C(=O)N[C@@H](CC(C)C)C(=O)[C@]1(CO1)C)NC(=O)[C@H]([C@@H](C)CC)N(C)C(=O)C [epoxomicin]
Outline: as §1

[9] = compound: CCn1c(C(=O)N(C2CC2)C2CC2)cc2c3c(ncn3C)c(Nc3cc(C)n(C)n3)nc21
Outline: as §1

[10] = compound: CCn1cc(-c2ccnc3[nH]c(-c4cccc(CN(C)C)c4)cc23)c(-c2ccc(NC(=O)N(C)C)cc2)n1
Outline: as §1

[11] = compound: CN(C)CC(=O)Nc1ccc2[nH]c(=O)c3ccccc3c2c1
Outline: as §1

rosiglitazone = compound: CN(CCOC1=CC=C(C=C1)C[C@H]2C(=O)NC(=O)S2)C3=CC=CC=N3 (racemic) [rosiglitazone]
Outline: as §1

[12] = compound: CN1C2=C(C3=C1C(=O)N(N=C3)CC4=CC(=CC=C4)N)SC(=C2)S(=O)C
Outline: as §1

[13] = compound: CN1CCC(CNc2ccc3ncc(-c4cccc(OC(F)(F)F)c4)n3n2)CC1
Outline: as §1

Row | Target | log2 fold change [1] | log2 fold change [2] | log2 fold change [3] | log2 fold change [4] | log2 fold change (Nexturastat A) | log2 fold change (vemurafenib) | log2 fold change [5] | log2 fold change [6] | log2 fold change (givinostat) | log2 fold change (barasertib) | log2 fold change [7] | log2 fold change (volasertib) | log2 fold change [8] | log2 fold change (epoxomicin) | log2 fold change [9] | log2 fold change [10] | log2 fold change [11] | log2 fold change (rosiglitazone) | log2 fold change [12] | log2 fold change [13]
1 | EIF3E (UniProt P60228) | inactive: -0.021 | inactive: -0.06 | inactive: 0.048 | inactive: -0.074 | inactive: 0.248 | inactive: 0.074 | inactive: 0.055 | inactive: 0.109 | inactive: 0.149 | inactive: 0.099 | inactive: 0.056 | inactive: -0.371 | inactive: 0.155 | inactive: 0.089 | inactive: -0.082 | inactive: 0.09 | inactive: 0.043 | inactive: 0.09 | inactive: 0.198 | inactive: -0.047
2 | EED, A0A5F9ZI63 | inactive: 0.005 | inactive: -0.067 | inactive: -0.012 | inactive: -0.019 | inactive: 0.013 | inactive: -0.02 | inactive: 0.025 | active: -0.204 | inactive: 0.082 | inactive: -0.038 | inactive: -0.052 | inactive: -0.055 | inactive: -0.159 | inactive: -0.032 |  | inactive: 0.068 | inactive: -0.099 |  | inactive: 0.045 | inactive: 0.209
3 | ELOVL1 (UniProt Q9BW60) | inactive: -0.035 | inactive: -0.065 | inactive: 0.064 | inactive: 0.044 | inactive: 0.03 | inactive: -0.032 | inactive: 0.116 | inactive: -0.063 | inactive: 0.067 | inactive: 0.028 | inactive: -0.217 | inactive: -0.127 | inactive: -0.011 | inactive: 0.003 |  | inactive: 0.032 | inactive: 0.116 |  | inactive: -0.068 | active: -0.691
4 | EIF4G1 isoform 8 (UniProt Q04637) | inactive: -0.028 | inactive: -0.011 | inactive: 0.004 | inactive: 0.006 | inactive: 0.169 | inactive: 0.013 | inactive: 0.028 | inactive: 0.119 | inactive: 0.057 | inactive: 0.067 | inactive: -0.114 | inactive: -0.487 | inactive: 0.174 | inactive: 0.016 |  | inactive: 0.005 | inactive: 0.031 |  | inactive: 0.181 | inactive: -0.425
5 | ELOC (UniProt Q15369) | inactive: 0.016 | inactive: -0.034 | inactive: 0.008 | inactive: 0.001 | inactive: -0.027 | inactive: 0.017 | inactive: 0.031 | inactive: 0 | inactive: -0.035 | inactive: 0.026 | inactive: -0.009 | inactive: -0.016 | inactive: 0.042 | inactive: 0.028 |  | inactive: -0.087 | inactive: 0.108 |  | inactive: -0.033 | inactive: -0.014
6 | EIPR1 (UniProt Q53HC9) | inactive: -0.005 | inactive: -0.051 | inactive: 0.068 | inactive: 0.004 | inactive: 0.044 | inactive: 0.019 | inactive: 0.042 | inactive: 0.029 | inactive: 0.034 | inactive: 0.065 | inactive: 0.034 | inactive: -0.063 | inactive: 0.018 | inactive: 0.105 | inactive: -0.026 | inactive: -0.019 | inactive: 0.033 | inactive: -0.009 | inactive: -0.008 | inactive: -0.009
7 | EEF1B2 (UniProt P24534) | inactive: 0.024 | inactive: -0.025 | inactive: -0.007 | inactive: 0.031 | inactive: 0.031 | inactive: 0.024 | inactive: 0.02 | inactive: -0.009 | inactive: 0.023 | inactive: 0.055 | inactive: -0.171 | active: -0.343 | inactive: 0.056 | inactive: -0.034 |  | inactive: 0.007 | inactive: 0.016 |  | inactive: 0.03 | inactive: -0.065
8 | ELOB (UniProt Q15370) | inactive: -0.011 | inactive: -0.035 | inactive: -0.042 | inactive: -0.005 | inactive: 0.043 | inactive: -0.011 | inactive: -0.02 | inactive: 0.08 | inactive: -0.043 | inactive: 0.045 | inactive: -0.042 | inactive: 0.056 | inactive: -0.008 | inactive: -0.002 | inactive: 0.03 | inactive: -0.028 | inactive: -0.007 | inactive: -0.006 | inactive: -0.032 | inactive: -0.053
9 | EGFL7 (UniProt Q9UHF1) | inactive: -0.094 |  |  |  | inactive: 0.039 |  |  |  |  | inactive: -0.076 |  |  |  | inactive: 0.016 |  | inactive: 0.042 |  | inactive: 0.111 |  | inactive: 0.353
10 | EIF4ENIF1 isoform 3 (UniProt Q9NRA8) | inactive: 0.002 | inactive: -0.019 | inactive: 0.007 | inactive: -0.002 | inactive: 0.126 | inactive: 0.056 | inactive: -0.033 | inactive: 0.041 | inactive: 0.029 | inactive: 0.005 | inactive: -0.042 | inactive: -0.108 |  | inactive: -0.053 | inactive: -0.028 | inactive: 0.018 | inactive: -0.065 | inactive: -0.044 | inactive: -0.071 | inactive: -0.275
11 | EIF3G (UniProt K7ER90) | inactive: 0.007 |  |  | inactive: -0.061 | inactive: 0.05 | inactive: 0.043 |  | inactive: -0.152 | inactive: 0 | inactive: -0.022 |  |  | inactive: -0.112 | inactive: 0.028 | inactive: -0.257 |  | inactive: -0.014 | inactive: 0.316 | inactive: 0.146 | 
12 | ELL (UniProt P55199) | inactive: -0.064 | inactive: -0.127 |  |  | inactive: -0.042 |  |  |  | inactive: 0.077 | inactive: -0.036 | inactive: -0.155 |  | inactive: 0.4 | inactive: -0.118 | inactive: -0.029 | inactive: -0.045 |  | inactive: 0.429 | inactive: 0.078 | inactive: 0.04
13 | EIF4A1 (UniProt P60842) | inactive: 0.106 | inactive: -0.017 | inactive: 0.061 | inactive: 0.049 | inactive: -0.115 | inactive: 0.055 | inactive: 0.089 | inactive: 0.151 | inactive: 0.06 | inactive: 0.026 | inactive: -0.106 | active: -0.273 | inactive: 0.079 | inactive: 0.001 |  | inactive: -0.052 | inactive: 0.047 |  | inactive: -0.046 | inactive: -0.126
14 | ELAC1 (UniProt Q9H777) | inactive: 0.003 |  | inactive: -0.051 | inactive: -0.049 | inactive: 0.011 | inactive: -0.017 | inactive: 0.007 |  | inactive: -0.023 |  | inactive: -0.067 | inactive: 0.055 | inactive: 0.046 | inactive: -0.002 |  | active: -0.488 | inactive: 0 |  | inactive: 0.079 | inactive: -0.227
15 | EIF3J isoform 2 (UniProt O75822) | inactive: -0.1 |  | inactive: 0.032 | inactive: -0.02 | inactive: 0.048 | inactive: -0.17 | inactive: -0.062 | inactive: -0.613 | inactive: -0.129 | inactive: -0.071 |  | inactive: 0.031 | inactive: -0.079 | inactive: 0.025 |  |  | inactive: 0.076 |  | inactive: 0.133 | 
16 | ELOVL6 (UniProt Q9H5J4) | inactive: 0.191 | inactive: 0.009 | inactive: -0.146 | inactive: 0.069 |  | inactive: 0.083 | inactive: -0.153 | inactive: -0.074 | inactive: 0.145 | inactive: 0.067 | inactive: 0.096 | inactive: -0.068 | inactive: -0.139 |  | inactive: -0.046 |  | inactive: 0.036 | inactive: 0.013 | inactive: -0.045 | 
17 | ELF1 (UniProt P32519) | inactive: 0.056 | inactive: -0.05 | inactive: 0 | inactive: 0.033 | inactive: -0.051 |  | inactive: 0.091 |  | inactive: 0.152 |  | inactive: 0.116 | inactive: -0.516 | inactive: 0.185 | inactive: 0.117 |  |  |  |  | inactive: 0.027 | 
18 | EML3 (UniProt Q32P44) | inactive: -0.018 | inactive: -0.015 | inactive: -0.134 | inactive: -0.078 | inactive: 0.027 |  | inactive: 0.046 | inactive: 0.1 | inactive: 0.124 | inactive: 0.032 | inactive: 0.195 | inactive: -0.082 | inactive: 0.224 | inactive: -0.076 | inactive: -0.059 | inactive: -0.081 |  | inactive: 0.105 | inactive: 0.359 | inactive: -0.032
19 | ENO2 (UniProt U3KQQ1) | inactive: -0.3 |  | inactive: -0.294 | inactive: -0.14 |  |  | inactive: -0.339 |  |  | inactive: 0.146 |  | inactive: 0.124 |  |  |  | inactive: -0.351 |  | inactive: 0.057 |  | inactive: -1.04
20 | ENTPD6 (UniProt O75354) | inactive: 0.085 | inactive: 0.025 | inactive: -0.007 |  | inactive: -0.019 |  | inactive: -0.007 | inactive: 0.188 | inactive: 0.036 | inactive: 0.065 | inactive: 0.002 | inactive: -0.176 | inactive: 0.009 | inactive: 0.055 | inactive: 0.02 | inactive: 0.126 |  | inactive: 0.057 | inactive: 0.003 | inactive: -0.055

A different layout for part of the listing above.

| Row | Target | log2 fold change [1] | log2 fold change [2] | log2 fold change [3] | log2 fold change [4] | log2 fold change (Nexturastat A) | log2 fold change (vemurafenib) | log2 fold change [5] | log2 fold change [6] | log2 fold change (givinostat) | log2 fold change (barasertib) | log2 fold change [7] | log2 fold change (volasertib) | log2 fold change [8] | log2 fold change (epoxomicin) | log2 fold change [9] | log2 fold change [10] | log2 fold change [11] | log2 fold change (rosiglitazone) | log2 fold change [12] | log2 fold change [13] |
| --- | --- | --- | --- | --- | --- | --- | --- | --- | --- | --- | --- | --- | --- | --- | --- | --- | --- | --- | --- | --- | --- |
| 1 | EIF3E (UniProt P60228) | inactive: -0.021 | inactive: -0.06 | inactive: 0.048 | inactive: -0.074 | inactive: 0.248 | inactive: 0.074 | inactive: 0.055 | inactive: 0.109 | inactive: 0.149 | inactive: 0.099 | inactive: 0.056 | inactive: -0.371 | inactive: 0.155 | inactive: 0.089 | inactive: -0.082 | inactive: 0.09 | inactive: 0.043 | inactive: 0.09 | inactive: 0.198 | inactive: -0.047 |
| 16 | ELOVL6 (UniProt Q9H5J4) | inactive: 0.191 | inactive: 0.009 | inactive: -0.146 | inactive: 0.069 |  | inactive: 0.083 | inactive: -0.153 | inactive: -0.074 | inactive: 0.145 | inactive: 0.067 | inactive: 0.096 | inactive: -0.068 | inactive: -0.139 |  | inactive: -0.046 |  | inactive: 0.036 | inactive: 0.013 | inactive: -0.045 |  |
